Values quoted from earlier work, collected in patent US5478928A, “2',3'-dideoxy-4'-thioribonucleosides and synthetic precursors thereof” (priority 1993, dated 1995).
At least one compound was matched to its structure with a doubt left.

Test system: AIDS
Settings: background; cited from earlier work

In the case of `O=c1[nH]cnc2c1ncn2[C@H]1CC[C@@H](CO)O1` [dideoxyinosine], the “potency for the treatment of AIDS” value is listed as “particularly potent”.
In the case of `Nc1ccn([C@H]2CC[C@@H](CO)O2)c(=O)n1` [DDC, dideoxycytidine, reference compound], the “potency for the treatment of AIDS” value is listed as “particularly potent”.
